# Primary screen of a compound library

Sequences of proteins named here, by UniProt entry; tags and fusion partners are left off. Residues count along the entry.
UniProt I6X8D2, whole entry: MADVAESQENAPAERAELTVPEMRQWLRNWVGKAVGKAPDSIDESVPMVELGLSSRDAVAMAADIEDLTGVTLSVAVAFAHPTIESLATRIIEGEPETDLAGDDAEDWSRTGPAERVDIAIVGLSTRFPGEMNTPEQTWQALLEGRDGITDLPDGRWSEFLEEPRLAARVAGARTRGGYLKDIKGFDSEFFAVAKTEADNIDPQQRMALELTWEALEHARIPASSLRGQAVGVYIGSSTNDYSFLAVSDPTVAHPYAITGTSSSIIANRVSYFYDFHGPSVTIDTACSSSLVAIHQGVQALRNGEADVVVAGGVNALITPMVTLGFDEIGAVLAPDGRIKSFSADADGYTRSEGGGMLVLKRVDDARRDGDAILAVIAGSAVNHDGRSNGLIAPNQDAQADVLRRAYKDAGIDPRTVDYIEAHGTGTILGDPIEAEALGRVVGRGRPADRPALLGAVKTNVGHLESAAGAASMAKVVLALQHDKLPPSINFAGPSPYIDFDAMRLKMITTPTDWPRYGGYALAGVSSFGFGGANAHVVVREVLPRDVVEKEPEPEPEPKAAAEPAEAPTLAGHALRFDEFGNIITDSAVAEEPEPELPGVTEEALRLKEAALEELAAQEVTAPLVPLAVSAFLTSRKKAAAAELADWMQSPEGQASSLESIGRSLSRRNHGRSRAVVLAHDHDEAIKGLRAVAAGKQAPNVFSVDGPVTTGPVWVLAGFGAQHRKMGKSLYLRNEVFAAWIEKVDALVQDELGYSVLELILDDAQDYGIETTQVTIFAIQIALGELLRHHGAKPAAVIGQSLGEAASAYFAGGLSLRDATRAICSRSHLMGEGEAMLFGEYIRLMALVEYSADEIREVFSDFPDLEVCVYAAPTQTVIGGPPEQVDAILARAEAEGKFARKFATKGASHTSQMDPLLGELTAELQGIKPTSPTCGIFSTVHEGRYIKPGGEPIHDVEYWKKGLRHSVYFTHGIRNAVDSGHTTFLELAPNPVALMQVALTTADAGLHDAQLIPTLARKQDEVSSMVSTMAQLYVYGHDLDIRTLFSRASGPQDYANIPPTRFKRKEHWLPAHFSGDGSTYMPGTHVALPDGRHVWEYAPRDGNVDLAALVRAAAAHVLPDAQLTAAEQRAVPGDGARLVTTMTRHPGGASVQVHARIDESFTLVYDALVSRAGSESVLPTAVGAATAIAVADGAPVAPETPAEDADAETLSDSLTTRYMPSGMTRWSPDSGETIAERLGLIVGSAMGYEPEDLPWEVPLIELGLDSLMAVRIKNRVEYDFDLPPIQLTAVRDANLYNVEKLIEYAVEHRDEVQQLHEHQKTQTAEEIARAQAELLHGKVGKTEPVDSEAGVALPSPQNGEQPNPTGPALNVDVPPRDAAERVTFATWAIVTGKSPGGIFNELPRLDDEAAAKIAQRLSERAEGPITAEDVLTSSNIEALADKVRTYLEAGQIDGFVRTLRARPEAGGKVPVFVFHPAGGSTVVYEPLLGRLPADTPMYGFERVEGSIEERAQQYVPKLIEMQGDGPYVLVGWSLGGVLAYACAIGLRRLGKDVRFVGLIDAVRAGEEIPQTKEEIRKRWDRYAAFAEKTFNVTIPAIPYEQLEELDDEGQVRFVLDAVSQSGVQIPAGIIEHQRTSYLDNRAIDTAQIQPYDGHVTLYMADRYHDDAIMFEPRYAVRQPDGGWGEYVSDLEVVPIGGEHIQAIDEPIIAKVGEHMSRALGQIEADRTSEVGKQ
UniProt A4I591, 1-473: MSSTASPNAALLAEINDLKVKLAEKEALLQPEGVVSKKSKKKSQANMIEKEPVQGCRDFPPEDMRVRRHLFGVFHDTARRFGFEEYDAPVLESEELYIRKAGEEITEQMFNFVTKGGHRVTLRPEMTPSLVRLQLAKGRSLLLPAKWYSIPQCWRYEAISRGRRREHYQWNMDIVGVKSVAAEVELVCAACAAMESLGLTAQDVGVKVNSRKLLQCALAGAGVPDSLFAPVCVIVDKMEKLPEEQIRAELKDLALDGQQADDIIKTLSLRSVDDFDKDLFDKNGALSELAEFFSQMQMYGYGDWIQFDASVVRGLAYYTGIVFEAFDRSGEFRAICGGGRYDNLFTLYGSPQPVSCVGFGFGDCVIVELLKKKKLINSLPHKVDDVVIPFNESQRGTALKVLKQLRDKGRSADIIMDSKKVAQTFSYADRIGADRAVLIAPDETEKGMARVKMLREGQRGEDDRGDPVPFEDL

Data taken from ChEMBL document CHEMBL3988442, “University of Dundee, Small-Polar-MMV Screening Library” (2021).

Leishmania in macrophages: 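Cell assay of Leishmania donovani living inside macrophages; the read-out is not stated. Concentration: 30 µM. The record gives no direction; compounds that gave an IC50 in retests scored well above the rest, so higher reads as stronger inhibition. Size under these conditions: about 69,000 compounds, about 1,000 of them at 50% or above in at least one test.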
Pks13 thioesterase: 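Enzyme assay of the thioesterase domain of polyketide synthase 13; the read-out is not stated. Target: Polyketide synthase Pks13, Mycobacterium tuberculosis (UniProt I6X8D2). Concentration: 30 µM. The record gives no direction; the compounds picked for IC50 retests had high values, so higher reads as stronger inhibition. About 67,000 compounds were tested under these conditions; 0.46% (about 300) showed 50% or more at least once.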
LiHisRS: 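Histidine-tRNA ligase, Leishmania infantum (UniProt A4I591). Enzyme assay of histidyl-tRNA synthetase; the read-out is not stated. Concentration: 30 µM. The record gives no direction; compounds that gave an IC50 in retests scored well above the rest, so higher reads as stronger inhibition. The assay is labelled LdHisRS but filed under L. infantum. Size under these conditions: about 69,000 compounds, about 410 of them at 50% or above in at least one test.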

Results are given as percent effect.
How 0% and 100% were set is not recorded. Most values in the screen are low, and negative values occur.
The compounds are a random part of those screened.
Two or more numbers in one place are separate tests of the same structure; such repeats can differ widely.
A dash means the value is not listed here; it may have been measured.

| # | SMILES | Leishmania in macrophages | Pks13 thioesterase | LiHisRS |
|---|---|---|---|---|
| 1 | `CS(=O)(=O)c1ccc2c(c1)N(C(=O)Cc1ccc(F)cc1)CCC2` | 27.1% | 8.932% | 0% |
| 2 | `Cc1cc2nc(C(C)C)cc(N(C)CC3CCCN3C)n2n1` (configuration not stated) | 6.103% | -17.7% | 20.41% |
| 3 | `O=C(c1c(O)cc(F)cc1F)N1CCc2cnccc21` | -4.711% | - | 4.819% |
| 4 | `[H][C@]12CNC[C@@]1(C(=O)NCc1cccc3[nH]ccc13)CN(C(=O)COC)C2` | 17.17% | - | - |
| 5 | `Clc1cccc(C[C@@H]2NCCC[C@@H]2Nc2cccc(Cl)c2)c1` | - | -12.87% | 26.76% |
| 6 | `COCCN1CCC12CCN(C(=O)Cc1cccs1)C2.O=C(O)C(F)(F)F` (configuration not stated) | -5.598% | - | - |
| 7 | `O=C(O)C(F)(F)F.[H][C@@]12COC[C@]1([H])[C@H](NC(=O)c1cccn1C)CN2CC1CC1` | -24.2% | - | - |
| 8 | `O=C(c1ccnnc1)N1C[C@H](Oc2cccnc2)[C@H]2OCCC[C@H]21` | - | -7.038% | 19.23% |
| 9 | `CC(C)NS(=O)(=O)c1cc(C(=O)O)cc(-c2ccccc2CO)c1` | -10.97% | -25.37% | 13.11% |
| 10 | `O=C(O)C(F)(F)F.[H][C@]12C[C@@H](C(=O)NCc3cccs3)CO[C@@]1([H])CCN(CCOC)C2` | -3.504% | - | - |
| 11 | `Cc1cc(CN2C[C@@H]3CCCO[C@@H]3[C@H](NS(C)(=O)=O)C2)no1` | - | -20.37% | 14.29% |
| 12 | `COCCN1CCN(c2ccc(CN(C)C)cn2)CC1` | -14.87% | -32.01% | 8.861% |
| 13 | `CNC(=O)CN1CCCC12CCN(Cc1c[nH]cn1)CC2.O=C(O)C(F)(F)F.O=C(O)C(F)(F)F` | 11.7% | - | - |
| 14 | `O=C(NCC1CC1)c1cc2c(s1)CCN2C(=O)c1cccnc1` | 11.98% | -10.4% | 16.67% |
| 15 | `Cc1nc(CN2C(=O)C[C@H]3[C@H]2CCN3C2CCOC2)cs1` (some centres not stated) | - | 32.81% | 22.34% |
| 16 | `O=C(NCC1CC1)C1CCC2(CCN(C(=O)c3cccnc3)CC2)O1` (configuration not stated) | - | -14.16% | 13.76% |
| 17 | `Cc1cnn(C2CN(CC(=O)NCCCc3ccccc3)C2)c1` | -20.02% | -30.33% | 32.46% |
| 18 | `Cc1cc(C(=O)N2CCCC(C)C2)ccc1NCC(=O)N1CCOCC1` (configuration not stated) | 32.51% | -13.51% | 13.46% |
| 19 | `Cc1cc(NCCNc2ncccc2C)n2nc(C)cc2n1` | 44.15% | -9.633% | 18.68% |
| 20 | `CCc1ncnc2c1CCN(Cc1ccc3c(c1)OCO3)CC2` | - | -9.935% | 24.47% |
| 21 | `O=C(CSCc1ccccn1)NCC1CCN(C2CC2)C1` (configuration not stated) | 24.61% | -14.58% | 22.86% |
| 22 | `CN(C)c1ncc(-c2cc(C(=O)NCCO)n(CC3CC3)c2)cn1` | - | 1.265% | 15.07% |
| 23 | `COc1cccc(CNC(=O)CCOc2ccccc2C)c1` | 1.139% | -25.51% | 5% |
| 24 | `CN(C)C(=O)CN1CCC2(CCCN(c3ncc(F)cn3)C2)C1=O` (configuration not stated) | -27.71% | 13.65% | 7.563% |
| 25 | `COc1cccc(-n2nnc(C(=O)N3CCCC(C)C3)c2C)c1` (configuration not stated) | -15.11% | -12.5% | 12.04% |
| 26 | `CCc1nnsc1C(=O)N1CCCN(Cc2ccc(F)cc2)CC1` | 20.49% | -5.522% | 6.612% |
| 27 | `Cn1ncc2c1C(COCC1CC1)CN(Cc1ccco1)C2` (configuration not stated) | 34.63% | -22.58% | 17.65% |
| 28 | `Cc1ccc(S(=O)(=O)N2CCN(CCCn3ccnc3)CC2)cc1` | 3.879% | -41.62% | 8.197% |
| 29 | `COCCNc1ccc(CC2CCCN(C3CCCC3)C2)nn1` (configuration not stated) | 10.06% | -2.536% | 19.58% |
| 30 | `CSc1nc2cc(C)n(CC(N)=O)c2c(=O)n1CC(C)C` | 1.825% | -12.63% | 10.17% |
| 31 | `Cc1nc(C2(O)CCCNCC2)sc1CCOc1ccccc1Cl` (configuration not stated) | - | 1.159% | 18% |
| 32 | `COCCN1CCCC(c2ncc(C(=O)N3CCOCC3)c(C)n2)C1` (configuration not stated) | 30.32% | 4.486% | 8.511% |
| 33 | `COc1cc(OC)cc(-c2cccc3c2OC(CN)C3)c1` (configuration not stated) | 81.48% | -11.58% | 22.22% |
| 34 | `Cc1nn(C)c(C)c1C1CCCN1CC(=O)Nc1cccnc1` (configuration not stated) | -5.961% | -21.35% | 11.4% |
| 35 | `Cc1ccc(CN2CCC3(CCC(=O)N3CC(=O)N(C)C)CC2)s1.O=C(O)C(F)(F)F` | 20.42% | - | - |
| 36 | `Fc1cnc(N2CCN3C[C@H](Oc4cncnc4)C[C@H]3C2)nc1` | - | - | 13.46% |
| 37 | `O[C@H]1[C@H](n2cc(-c3cncnc3)nn2)c2ccccc2C12CCNCC2` | 17.85% | -20.99% | 18.18% |
| 38 | `CC(NC(=O)NCc1cccs1)c1ccc2c(c1)CCC(=O)N2` (configuration not stated) | -5.276% | -3.489% | 11.54% |
| 39 | `CC(C)Nc1nc2c(cc1C(=O)NCC1CC1)CCN(C)CC2.O=C(O)C(F)(F)F.O=C(O)C(F)(F)F` | 3.398% | - | - |
| 40 | `Cn1nnc2c1CCN(Cc1ccncc1)C2COCC1CC1` (configuration not stated) | - | -22.94% | 23.64% |
| 41 | `O=C(COC1CCCC1)Nc1ncn(CC(=O)N2CCCCCC2)n1` | 16.4% | -18.76% | 5.505% |
| 42 | `[H][C@@]12CN(S(C)(=O)=O)C[C@]1(C(=O)NC)CCC21CCNCC1` | 2.335% | - | - |
| 43 | `CCc1[nH]c2ccc(CNC(=O)c3cnc(N)nc3C)cc2c1C` | -25.51% | 7.708% | 24.29% |
| 44 | `CN(C)C(=O)C1OC2(CCN(C(=O)N(C)C)CC2)c2ccccc21` (configuration not stated) | -3.893% | 16.06% | 25.64% |
| 45 | `COC1CCN(C(=O)Cn2cccc(C(F)(F)F)c2=O)C1` (configuration not stated) | -17.25% | -38.29% | 18.8% |
| 46 | `CS(=O)(=O)N1CCOCC2(CN(Cc3ccc(F)cc3)CCO2)C1` (configuration not stated) | - | -27.68% | 18.92% |
| 47 | `CSCC(=O)N1CCN(CC(O)C(C)(C)C)CC1` (configuration not stated) | -1.136% | - | 5.882% |
| 48 | `Cc1c(Br)cccc1C(=O)NCC1CCNCC1.Cl` | -14.41% | - | - |
| 49 | `Nc1cc(N2CCCC(COc3ccc(F)cc3)C2)ncn1` (configuration not stated) | 1.04% | -4% | 28.92% |
| 50 | `[H][C@@]12OCCN(S(=O)(=O)c3cn(C)cn3)[C@@]1([H])CC[C@H]2OCC` | 9.102% | - | - |
| 51 | `COc1cc(C)c(C)cc1S(=O)(=O)NCC(O)c1cccn1C` (configuration not stated) | 20.95% & 12.84% | -25.84% | 8.696% |
| 52 | `O=C(CCCn1cncn1)N1CCCC1c1nc(-c2ccccc2)no1` (configuration not stated) | -12.04% | -33.25% | 23.08% |
| 53 | `CN(C)C(CNC(=O)c1nc(N2CCOCC2)ncc1Cl)c1cccs1` (configuration not stated) | 3.142% | 0.8444% | 7.5% |
| 54 | `O=C(NCCN1CCOC1=O)c1ccc2sccc2c1` | 1.66% | -16.1% | 5.051% |
| 55 | `CC(C)c1nn(C)c(Cl)c1CNCC(=O)N1CCN(C)CC1.Cl` | -6.707% | - | - |
| 56 | `CC(C1CC1)N(C)Cc1nnc(-c2ccco2)o1` (configuration not stated) | 9.478% | -10.59% | 16.13% |
| 57 | `CSC(C)CC(=O)N1CCC(n2ccnn2)CC1` (configuration not stated) | 14.84% | -9.225% | 4.255% |
| 58 | `Cn1ccnc1CN1CCN(CC(O)c2ccco2)CC1` (configuration not stated) | 22.38% | -12.05% | -42.67% |
| 59 | `CCc1noc(C(C)N2CCNCC2)n1` (configuration not stated) | -10.97% | -13.67% | 12.16% |
| 60 | `O=C(O)c1cccc(CC2CCN(c3ncccn3)CC2)c1` | -5.699% | 36.54% | -3.947% |
| 61 | `Cn1cc(C(=O)N2C[C@@H]3COC[C@]3(COCc3cccnc3)C2)cn1` | - | - | 16.5% |
| 62 | `COC(=O)N1CCC(Nc2cccc(F)c2C(C)=O)C1` (configuration not stated) | 26.26% | -17.12% | 18.75% |